# Measured values reported in patent US20130029964A1, “[5, 6] HETEROCYCLIC COMPOUND” (DAIICHI SANKYO COMPANY, LIMITED, priority 2010, published 2013).
# Counter-ions that a name gives are not always drawn. Some of these results come from one statement about several compounds together.
# Test system: female F344 rats
# Assay: Effect on bone density (oophorectomized rats, femur, DXA)
# Format: in vivo
# Details: at 10 mg/kg or less, orally once a day, six days a week, six weeks, excised femur, oophorectomy or sham surgery
row,Compound,bone density
1,"N#Cc1ccc2ncn(-c3ccc(OCCOC4CCOCC4)cc3)c2c1 [Example 24, 1-{4-[2-(Tetrahydro-2H-pyran-4-yloxy)ethoxy]phenyl}-1H-benzimidazole-6-carbonitrile hydrochloride]",significantly increased the bone density
2,OC1COCC1OCCOc1ccc(-c2cnc3ccc(F)cn23)cc1 (centres unmarked) [Example 89],significantly increased the bone density
3,N#Cc1ccc2ncc(-c3ccc(OCCOC4COCC4O)cc3)n2c1 (centres unmarked) [Example 91],significantly increased the bone density
4,N#Cc1ccc2ncn(-c3ccc(OCCOC[C@H]4COCCO4)cc3)c2c1 [Example 92],significantly increased the bone density
5,N#Cc1ccc2ncc(-c3ccc(OCCOC[C@H]4COCCO4)cc3)n2c1 [Example 93],significantly increased the bone density
6,N#Cc1ccc2ncn(-c3ccc(OCCOC4COCC4O)cc3)c2c1 (centres unmarked) [Example 94],significantly increased the bone density
7,OC1COCC1OCCOc1ccc(-n2cnc3ccc(OC(F)F)cc32)cc1 (centres unmarked) [Example 96],significantly increased the bone density
8,N#Cc1ccc2ncc(-c3ccc(OCCOC4CCOCC4)cc3)n2c1 [Example 148],significantly increased the bone density
